Test results: ChEMBL document CHEMBL5674883, “The Heterochromatin Landscape in Migrating Cells and the Importance of H3K27me3 for Associated Transcriptome Alterations” (Cells, 2018)
This continues a long series; more values of the same kind are listed elsewhere.

Protein sequences, listed by entry. Tags and fused reporters are not part of them.
UniProt Q61188, whole entry: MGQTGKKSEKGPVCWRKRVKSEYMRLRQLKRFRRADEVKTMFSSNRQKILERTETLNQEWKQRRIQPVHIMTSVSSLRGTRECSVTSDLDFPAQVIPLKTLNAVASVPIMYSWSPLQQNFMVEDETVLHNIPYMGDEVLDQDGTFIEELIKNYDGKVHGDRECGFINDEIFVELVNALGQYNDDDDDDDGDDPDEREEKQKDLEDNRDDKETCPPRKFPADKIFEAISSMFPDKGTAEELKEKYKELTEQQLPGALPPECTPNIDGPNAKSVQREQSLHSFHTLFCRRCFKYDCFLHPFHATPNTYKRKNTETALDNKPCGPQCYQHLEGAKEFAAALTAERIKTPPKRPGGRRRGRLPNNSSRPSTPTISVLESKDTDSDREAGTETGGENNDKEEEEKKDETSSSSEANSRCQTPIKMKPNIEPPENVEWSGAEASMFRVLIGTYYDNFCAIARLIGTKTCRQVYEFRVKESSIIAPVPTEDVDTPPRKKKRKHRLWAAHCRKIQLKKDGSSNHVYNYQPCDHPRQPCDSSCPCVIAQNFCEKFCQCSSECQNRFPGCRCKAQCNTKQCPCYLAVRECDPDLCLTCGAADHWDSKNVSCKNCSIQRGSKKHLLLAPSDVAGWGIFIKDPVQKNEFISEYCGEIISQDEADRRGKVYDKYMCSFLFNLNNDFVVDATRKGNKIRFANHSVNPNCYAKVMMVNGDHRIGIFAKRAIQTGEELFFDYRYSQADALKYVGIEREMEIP

Experiments:
Assay type in all cases: cell-based
[1] = molecular target: T1, RNA polymerase II (Mus musculus) (UniProt P08775+Q8CFI7+P97760+A0A3Q4L2S8+Q80UW8+P61219+P62488+Q923G2+P60898+O08740+Q63871+P62876); assay: Inhibition of RNA polymerase II in mouse B16-F1 migrating cells assessed as fold change in Rpph1-RNA stability at 0.1 mM measured by ChIP-seq analysis relative to control cells
[2] = molecular target: T1, RNA polymerase II (Mus musculus); assay: Inhibition of RNA polymerase II in mouse B16-F1 migrating cells assessed as fold change in Sema3f-RNA stability at 0.1 mM measured by ChIP-seq analysis relative to control cells
[3] = molecular target: T1, RNA polymerase II (Mus musculus); assay: Inhibition of RNA polymerase II in mouse B16-F1 migrating cells assessed as fold change in Mrps34-RNA stability at 0.1 mM measured by ChIP-seq analysis relative to control cells
[4] = molecular target: T1, RNA polymerase II (Mus musculus); assay: Inhibition of RNA polymerase II in mouse B16-F1 migrating cells assessed as fold change in Cib1-RNA stability at 0.1 mM measured by ChIP-seq analysis relative to control cells
[5] = molecular target: T1, RNA polymerase II (Mus musculus); assay: Inhibition of RNA polymerase II in mouse B16-F1 migrating cells assessed as fold change in Chchd6-RNA stability at 0.1 mM measured by ChIP-seq analysis relative to control cells
[6] = molecular target: T1, RNA polymerase II (Mus musculus); assay: Inhibition of RNA polymerase II in mouse B16-F1 migrating cells assessed as fold change in Pkig-RNA stability at 0.1 mM measured by ChIP-seq analysis relative to control cells
[7] = molecular target: T1, RNA polymerase II (Mus musculus); assay: Inhibition of RNA polymerase II in mouse B16-F1 migrating cells assessed as fold change in Gipc1-RNA stability at 0.1 mM measured by ChIP-seq analysis relative to control cells
[8] = molecular target: T1, RNA polymerase II (Mus musculus); assay: Inhibition of RNA polymerase II in mouse B16-F1 migrating cells assessed as fold change in Fermt2-RNA stability at 0.1 mM measured by ChIP-seq analysis relative to control cells
[9] = molecular target: T1, RNA polymerase II (Mus musculus); assay: Inhibition of RNA polymerase II in mouse B16-F1 migrating cells assessed as fold change in Cbfa2t2-RNA stability at 0.1 mM measured by ChIP-seq analysis relative to control cells
[10] = molecular target: T1, RNA polymerase II (Mus musculus); assay: Inhibition of RNA polymerase II in mouse B16-F1 migrating cells assessed as fold change in Ccdc47-RNA stability at 0.1 mM measured by ChIP-seq analysis relative to control cells
[11] = molecular target: T1, RNA polymerase II (Mus musculus); assay: Inhibition of RNA polymerase II in mouse B16-F1 migrating cells assessed as fold change in Pbrm1-RNA stability at 0.1 mM measured by ChIP-seq analysis relative to control cells
[12] = molecular target: T1, RNA polymerase II (Mus musculus); assay: Inhibition of RNA polymerase II in mouse B16-F1 migrating cells assessed as fold change in Man1a2-RNA stability at 0.1 mM measured by ChIP-seq analysis relative to control cells
[13] = molecular target: T1, RNA polymerase II (Mus musculus); assay: Inhibition of RNA polymerase II in mouse B16-F1 migrating cells assessed as fold change in Lypla1-RNA stability at 0.1 mM measured by ChIP-seq analysis relative to control cells
[14] = molecular target: T1, RNA polymerase II (Mus musculus); assay: Inhibition of RNA polymerase II in mouse B16-F1 migrating cells assessed as fold change in Kdm1b-RNA stability at 0.1 mM measured by ChIP-seq analysis relative to control cells
[15] = molecular target: T1, RNA polymerase II (Mus musculus); assay: Inhibition of RNA polymerase II in mouse B16-F1 migrating cells assessed as fold change in Trnt1-RNA stability at 0.1 mM measured by ChIP-seq analysis relative to control cells
[16] = molecular target: T1, RNA polymerase II (Mus musculus); assay: Inhibition of RNA polymerase II in mouse B16-F1 migrating cells assessed as fold change in Actr2-RNA stability at 0.1 mM measured by ChIP-seq analysis relative to control cells
[17] = molecular target: T1, RNA polymerase II (Mus musculus); assay: Inhibition of RNA polymerase II in mouse B16-F1 migrating cells assessed as fold change in Zfp958-RNA stability at 0.1 mM measured by ChIP-seq analysis relative to control cells
[18] = molecular target: T1, RNA polymerase II (Mus musculus); assay: Inhibition of RNA polymerase II in mouse B16-F1 migrating cells assessed as fold change in Tmed5-RNA stability at 0.1 mM measured by ChIP-seq analysis relative to control cells
[19] = molecular target: Histone-lysine N-methyltransferase EZH2 (Mus musculus) (UniProt Q61188); assay: Inhibition of EZH2 in mouse B16-F1 migrating cells assessed as fold change in H3K27me3-dependent regulated Smad6-mRNA expression at 3 uM measured by ChIP-seq analysis relative to control cells
[20] = molecular target: Histone-lysine N-methyltransferase EZH2 (Mus musculus) (UniProt Q61188); assay: Inhibition of EZH2 in mouse B16-F1 migrating cells assessed as fold change in H3K27me3-independent regulated Sapcd2-mRNA expression at 3 uM measured by ChIP-seq analysis relative to control cells
[21] = molecular target: Histone-lysine N-methyltransferase EZH2 (Mus musculus) (UniProt Q61188); assay: Inhibition of EZH2 in mouse B16-F1 migrating cells assessed as fold change in H3K27me3-buffered regulated Ppp1r15a-mRNA expression at 3 uM measured by ChIP-seq analysis relative to control cells
[22] = molecular target: Histone-lysine N-methyltransferase EZH2 (Mus musculus) (UniProt Q61188); assay: Inhibition of EZH2 in mouse B16-F1 migrating cells assessed as fold change in H3K27me3-buffered regulated Gclm-mRNA expression at 3 uM measured by ChIP-seq analysis relative to control cells
[23] = molecular target: Histone-lysine N-methyltransferase EZH2 (Mus musculus) (UniProt Q61188); assay: Inhibition of EZH2 in mouse B16-F1 migrating cells assessed as fold change in H3K27me3-buffered regulated Macrod1-mRNA expression at 3 uM measured by ChIP-seq analysis relative to control cells
[24] = molecular target: Histone-lysine N-methyltransferase EZH2 (Mus musculus) (UniProt Q61188); assay: Inhibition of EZH2 in mouse B16-F1 migrating cells assessed as fold change in H3K27me3-buffered regulated Sparc-mRNA expression at 3 uM measured by ChIP-seq analysis relative to control cells
[25] = molecular target: Histone-lysine N-methyltransferase EZH2 (Mus musculus) (UniProt Q61188); assay: Inhibition of EZH2 in mouse B16-F1 migrating cells assessed as fold change in H3K27me3-buffered regulated Atrx-mRNA expression at 3 uM measured by ChIP-seq analysis relative to control cells
[26] = molecular target: Histone-lysine N-methyltransferase EZH2 (Mus musculus) (UniProt Q61188); assay: Inhibition of EZH2 in mouse B16-F1 migrating cells assessed as fold change in H3K27me3-buffered regulated Pank1-mRNA expression at 3 uM measured by ChIP-seq analysis relative to control cells
[27] = molecular target: Histone-lysine N-methyltransferase EZH2 (Mus musculus) (UniProt Q61188); assay: Inhibition of EZH2 in mouse B16-F1 migrating cells assessed as fold change in H3K27me3-buffered regulated Nck2-mRNA expression at 3 uM measured by ChIP-seq analysis relative to control cells
[28] = molecular target: Histone-lysine N-methyltransferase EZH2 (Mus musculus) (UniProt Q61188); assay: Inhibition of EZH2 in mouse B16-F1 migrating cells assessed as fold change in H3K27me3-buffered regulated Slc4a3-mRNA expression at 3 uM measured by ChIP-seq analysis relative to control cells
[29] = molecular target: Histone-lysine N-methyltransferase EZH2 (Mus musculus) (UniProt Q61188); assay: Inhibition of EZH2 in mouse B16-F1 migrating cells assessed as fold change in H3K27me3-buffered regulated Cdh19-mRNA expression at 3 uM measured by ChIP-seq analysis relative to control cells
[30] = molecular target: Histone-lysine N-methyltransferase EZH2 (Mus musculus) (UniProt Q61188); assay: Inhibition of EZH2 in mouse B16-F1 migrating cells assessed as fold change in H3K27me3-buffered regulated Traf4-mRNA expression at 3 uM measured by ChIP-seq analysis relative to control cells

## OC[C@H]1O[C@@H](n2cnc3cc(Cl)c(Cl)cc32)[C@H](O)[C@@H]1O
[1]
  log2FC: 1.58
[2]
  log2FC: 0.98
[3]
  log2FC: 0.54
[4]
  log2FC: 0.47
[5]
  log2FC: 0.45
[6]
  log2FC: 0.44
[7]
  log2FC: 0.43
[8]
  log2FC: -0.38
[9]
  log2FC: -0.5
[10]
  log2FC: -0.5
[11]
  log2FC: -0.54
[12]
  log2FC: -0.55
[13]
  log2FC: -0.57
[14]
  log2FC: -0.58
[15]
  log2FC: -0.62
[16]
  log2FC: -0.77
[17]
  log2FC: -1.03
[18]
  log2FC: -1.1

## CCCc1cc(C)[nH]c(=O)c1CNC(=O)c1cc(-c2ccnc(N3CCN(C)CC3)c2)cc2c1cnn2C(C)C
[19]
  log2FC: 0.36
[20]
  log2FC: -0.55
[21]
  log2FC: 0.55
[22]
  log2FC: 0.48
[23]
  log2FC: 0.45
[24]
  log2FC: 0.4
[25]
  log2FC: -0.39
[26]
  log2FC: -0.4
[27]
  log2FC: -0.41
[28]
  log2FC: -0.45
[29]
  log2FC: -0.46
[30]
  log2FC: -0.46
